{
  "sequences": {"note": "The chains behind the UniProt entries cited, without tags or fusion partners.", "UniProt Q03431, whole entry, looked up": "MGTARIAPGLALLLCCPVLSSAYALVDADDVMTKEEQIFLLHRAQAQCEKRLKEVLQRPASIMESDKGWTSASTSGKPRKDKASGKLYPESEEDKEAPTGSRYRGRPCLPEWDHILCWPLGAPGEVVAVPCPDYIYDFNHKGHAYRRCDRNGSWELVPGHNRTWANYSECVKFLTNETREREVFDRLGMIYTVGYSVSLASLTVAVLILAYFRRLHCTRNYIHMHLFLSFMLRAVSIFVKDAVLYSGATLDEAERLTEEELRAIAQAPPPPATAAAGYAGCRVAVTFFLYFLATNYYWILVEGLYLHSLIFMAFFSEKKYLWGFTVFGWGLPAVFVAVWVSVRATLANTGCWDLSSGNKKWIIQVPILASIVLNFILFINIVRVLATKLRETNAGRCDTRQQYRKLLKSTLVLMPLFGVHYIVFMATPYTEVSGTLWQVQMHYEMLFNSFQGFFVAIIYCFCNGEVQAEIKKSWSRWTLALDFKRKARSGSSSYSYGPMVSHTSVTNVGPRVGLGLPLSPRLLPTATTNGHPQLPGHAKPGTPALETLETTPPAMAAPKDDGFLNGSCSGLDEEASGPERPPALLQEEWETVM"},
  "source": "PubChem BioAssay AID743266",
  "about": "(National Center for Advancing Translational Sciences (NCATS), 2014)",
  "note": "Out of some 410,000 compounds screened, about 310 (0.076%) were called active. Inconclusive results, whose numbers are uncertain, are shown with a selection of clear calls. The call rests on the fitted dose curve; in most records, active means well fitted activation curve with a large enough effect; inconclusive means small, poorly fitted or top-dose-only effect, or another doubt; inactive means no such curve, though single readings can be large or run the other way. A potency beside an inconclusive call is a rough fit, not a confirmed value. Potency means the concentration at half of the fitted maximal effect.",
  "data": [
    {"target": "Parathyroid hormone/parathyroid hormone-related peptide receptor (Homo sapiens) (UniProt Q03431)", "test": "qHTS for PTHR1 Agonists: Primary Screen; further: nearly all actives have a fitted effect of over 55% in size", "details": "HEK293 GP2 PTHR1 cells, GloSensor cAMP luminescence, 1 h; activation: at 115 µM (top of the series) unless noted; series mostly up to 115 µM", "method_in_brief": "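HEK-293-derived GP2 cells expressing PTHR1 and a GloSensor cAMP reporter, 3,000/well, plated overnight, given luciferin plus IBMX (each 0.5 mM as added) for 1 h at 37 °C, then compound for 1 h at 37 °C. Luminescence was read after 15 min at room temperature.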", "values": [
      {"compound": "Cc1nc(-n2nc(C)c(Cc3ccc(Cl)cc3)c2C)sc1C(=O)N1CCC(C)CC1", "outcome": "inactive"},
      {"compound": "CC(=O)Oc1ccc2ccccc2c1C(NC(=O)Cc1ccccc1)c1ccccc1Cl", "note": "(stereo unspecified)", "outcome": "inactive [at 57.5 µM]"},
      {"compound": "Cc1cnc(C(=O)OCc2nc3ccccc3o2)cn1", "Potency": "inconclusive: 79.4 µM [activator, partial curve, poor fit]"},
      {"compound": "CN(C)c1cc(-c2ccc(Br)cc2)oc(=O)c1Cl", "activation": "inactive: -31.1%"},
      {"compound": "CC(C)c1ccc(NC(=O)c2cn(C3CCCC3)c(=O)c3c2c2ccccc2n3C)cc1", "Potency": "inconclusive: 20 µM [activator, partial curve, poor fit]"},
      {"compound": "Cc1ccnc(NS(=O)(=O)c2ccc(NC(=O)/C=C/c3cccs3)cc2)n1", "Potency": "inconclusive: 15.8 µM [activator, partial curve]"},
      {"compound": "CN1c2ccccc2C(=O)/C(=C\\Nc2ccc(F)cc2F)S1(=O)=O", "outcome": "inactive"},
      {"compound": "Cc1ccc(N(C)C(=O)Cn2ncc3c([nH]c4ccccc43)c2=O)cc1C", "activation": "inactive: -14.7%"},
      {"compound": "Cn1nc(C(=O)NCc2ccccn2)c2ccccc2c1=O", "Potency": "inconclusive: 35.5 µM [activator, partial curve, poor fit]"},
      {"compound": "CCC1(C)Cc2c(sc3nnn(CC(=O)Nc4cccc5ccccc45)c(=O)c23)CO1", "note": "(stereo unspecified)", "Potency": "inconclusive: 39.8 µM [activator, single point]"},
      {"compound": "CCN(CC)S(=O)(=O)c1cccc(-n2c(O)c(C=Nc3ccccc3C(=O)O)c3ccccc3c2=O)c1", "Potency": "inconclusive: 50.1 µM [activator, partial curve, poor fit]"},
      {"compound": "CCC(=O)c1ccc(OCc2ccccc2)c(OC)c1", "activation": "inactive: -6.68%"},
      {"compound": "O=C(CSc1c2c(nc3ccc(Cl)cc13)CCCC2)N1CCCCC1", "outcome": "inactive"},
      {"compound": "Cc1[nH]n(-c2cccc(Cl)c2)c(=O)c1C=NC12CN3CN(CN(C3)C1)C2", "activation": "inactive: -3.24%"},
      {"compound": "Cc1ccc(C(=O)OCCn2cc(C#N)c(=O)[nH]c2=O)cc1", "activation": "inconclusive: 54.9% [activator]"},
      {"compound": "COc1ccc(CCNC(=O)C(C)n2nc(C)c3sc4ccccc4c3c2=O)cc1OC", "note": "(stereo unspecified)", "activation": "inconclusive: 46.4% [activator]"},
      {"compound": "Cc1ccc(-c2cc(-c3ccccc3)nc(Cl)n2)cc1", "activation": "inconclusive: 31.2% [activator] [at 57.5 µM]"},
      {"compound": "Cc1cccc(N2CCN(c3c(CN4CCCC4)c(=O)oc4ccccc34)CC2)c1C", "Potency": "inconclusive: 100 µM [activator, partial curve, poor fit]"},
      {"compound": "CCCCC(=O)NC(c1ccc([N+](=O)[O-])cc1)c1c(O)ccc2ccccc12", "note": "(stereo unspecified)", "activation": "inactive: -38.4%"},
      {"compound": "COc1cccc(CNC(=O)c2csc3c2CCCC3)c1", "activation": "inconclusive: 38.4% [activator]"},
      {"compound": "Cc1ccnc(N(C(=O)Nc2ccccc2)C2=NCC(C)(C)S2)c1", "activation": "inactive: -1.65%"},
      {"compound": "COc1ccccc1Nc1nc2c(S(=O)(=O)c3ccc(C(C)C)cc3)nnn2c2ccsc12", "activation": "inconclusive: 38.3% [activator]"},
      {"compound": "COc1ccc(N2CCN(c3nc4c(c(=O)n(C)c(=O)n4C)n3CCCc3ccccc3)CC2)cc1", "Potency": "inconclusive: 0.631 µM [activator, full curve, poor fit]"},
      {"compound": "COCC(O)Cn1ccnc1N=Nc1ccccc1", "note": "(stereo unspecified)", "Potency": "inconclusive: 2.24 µM [activator, full curve, poor fit]"},
      {"compound": "CC1Nc2ncnc(N3CCN(c4ccccn4)CC3)c2N(Cc2ccccc2)C1=O", "note": "(stereo unspecified)", "activation": "inactive: -8.61%"},
      {"compound": "CCc1cc(C(=O)N2CCN(c3ccccc3OC)CC2)sc1C", "activation": "inactive: -4.75%"},
      {"compound": "COc1ccc(C(=O)N2CCCC(c3nc(-c4cccs4)no3)C2)cc1", "note": "(stereo unspecified)", "activation": "inconclusive: 57.9% [activator] [at 57.5 µM]"},
      {"compound": "CCc1cc2c(=O)c(-c3nc4ccccc4n3C)c(C(C)C)oc2c(CN2CCN(C)CC2)c1O", "Potency": "inconclusive: 39.8 µM [activator, single point]"},
      {"compound": "Cc1cc(N2CCCCCC2)nc(-c2ccccc2O)n1", "Potency": "inconclusive: 39.8 µM [activator, single point]"},
      {"compound": "CCCCCCC(=O)Nc1nc(C)c(-c2csc(Nc3cc(Cl)ccc3OC)n2)s1", "activation": "inconclusive: 34.8% [activator]"},
      {"compound": "N#Cc1ccc(OCC(=O)NCC2COc3ccccc3O2)cc1", "note": "(stereo unspecified)", "outcome": "inactive"},
      {"compound": "CCC(=O)N1c2ccccc2CC1C(=O)NCCCN1CCN(c2ccccc2)CC1", "note": "(stereo unspecified)", "activation": "inconclusive: 42% [activator]"},
      {"compound": "Cc1ccc(N2C(=O)SC(Cc3ccccc3)C2=O)cc1", "note": "(stereo unspecified)", "Potency": "inconclusive: 50.1 µM [activator, single point]"},
      {"compound": "O=C(c1ccccc1[N+](=O)[O-])N1CCC(Cc2ccccc2)CC1", "activation": "inconclusive: 33.2% [activator] [at 57.5 µM]"},
      {"compound": "CCOC(=O)CSc1nnc(-c2nnc(SCC(=O)OCC)n2CC)n1CC", "activation": "inactive: -21.3%"},
      {"compound": "CC(C)OP(=O)(c1ccccc1)c1ccccc1", "activation": "inconclusive: -56.1% [activator]"},
      {"compound": "COc1cccc(-c2nc(C=O)cs2)c1", "Potency": "inconclusive: 44.7 µM [activator, partial curve, poor fit]"},
      {"compound": "CNC[C@H](O)c1cccc(O)c1", "activation": "inconclusive: 4.69% [activator]"},
      {"compound": "Cc1ccc(C(=O)Nc2c(-c3ccccc3)nc3ccccn23)cc1C", "activation": "inactive: -1.1%"},
      {"compound": "CCn1cc(C(=O)N2CCN(c3cccc(Cl)c3)CC2)c(=O)c2cc(S(=O)(=O)N3CCOCC3)ccc21", "Potency": "inconclusive: 5.01 µM [activator, full curve]"},
      {"compound": "CC1CCN(S(=O)(=O)c2ccc3c(c2)N(CC(=O)NCc2ccccc2)C(=O)CO3)CC1", "Potency": "inconclusive: 10 µM [activator, partial curve]"},
      {"compound": "NNC(=O)c1[nH]c2ccc([N+](=O)[O-])cc2c1-c1ccccc1", "Potency": "inconclusive: 44.7 µM [activator, partial curve, poor fit]"},
      {"compound": "COc1cc(NC(=O)c2ccc(C(C)(C)C)cc2)c(OC)cc1NC(=O)CN1CCCCC1", "Potency": "inconclusive: 7.08 µM [activator, full curve, poor fit]"},
      {"compound": "CC1CC(C)CN(C(=O)Cn2cc(C=O)c3ccccc32)C1", "note": "(stereo unspecified)", "Potency": "inconclusive: 158 µM [activator, single point]"},
      {"compound": "FC(F)(F)c1cccc(N2CCN(Cc3ccoc3)CC2)c1", "activation": "inconclusive: 1.85% [activator] [at 57.5 µM]"},
      {"compound": "CCS(=O)(=O)CCSc1nc2ccccc2o1", "activation": "inactive: -6.37% [at 57.5 µM]"}
    ]}
  ]
}
